# Small-molecule microarray binding calls

Oligonucleotides screened, 5′ to 3′:
TPP: TPP riboswitch RNA three-way junction, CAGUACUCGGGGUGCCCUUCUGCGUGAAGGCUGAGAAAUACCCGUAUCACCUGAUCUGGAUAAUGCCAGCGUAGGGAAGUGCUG. About 24,000 compounds screened, about 160 hits.
PreQ1: PreQ1 riboswitch RNA pseudoknot, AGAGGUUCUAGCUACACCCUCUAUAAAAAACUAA. From B. subtilis. About 24,000 compounds screened, about 170 hits.
SAM-II: SAM-II riboswitch RNA pseudoknot, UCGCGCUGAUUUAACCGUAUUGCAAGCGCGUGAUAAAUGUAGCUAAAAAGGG. About 21,000 compounds screened, about 200 hits.

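Compounds were printed on reactive glass slides in duplicate spots, a dye-labelled oligonucleotide was laid over them, and the fluorescence left after washing was read. For the PreQ1, TPP and SAM-II riboswitches the laboratory earlier reported (doi:10.1038/s41467-019-09493-3) 1 µM RNA, 2 h, and a rule that included a mean Z-score above 3 (spot signal-to-noise against the whole library), a score well above that on a control array, and duplicate spots agreeing (coefficient of variation under 100). The data file gives only the calls; its cut-offs may differ, and compounds hitting several targets are kept. The calls come from the array alone, and fixing a compound to the slide can hide its binding.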
Key: active = hit, inactive = tested without a hit.
This is an unselected part of the compounds tested.
A dash means that no call is listed here.

Compound	TPP	PreQ1	SAM-II
N#CCc1n[nH]c(N)c1C#N	inactive	inactive	inactive
CCN1CC(c2ccccc2)CC2(CCN(c3ccnc(N)n3)CC2)C1 (centres unmarked)	inactive	inactive	inactive
C=CCc1cc(CNC(CC)CO)cc(OC)c1OCC.Cl (centres unmarked)	inactive	inactive	inactive
Cn1cc(C#N)cc1C(=O)NCC1CNCCO1 (centres unmarked)	inactive	inactive	inactive
Cc1cc(C)c(-c2c(NC3CCC(C)CC3)c(=O)c2=O)cc1C (centres unmarked)	inactive	inactive	-
CC(C)Cn1cncc1CNC1CCN(c2ncnc3[nH]cnc23)CC1	inactive	inactive	inactive
COc1cc2nc(Cl)nc(N)c2cc1OC	inactive	inactive	inactive
CN(C)CCNc1oc(-c2ccc(S(=O)(=O)N(C)C)cc2)nc1C#N	inactive	inactive	-
Cc1ccc(-n2[nH]c(C)c(NN=C3C=CC=C(c4cccc(C(=O)O)c4)C3=O)c2=O)cc1C	inactive	inactive	inactive
Cc1cccc(C2CCCN(c3cc(C)nc(N)n3)C2)c1 (centres unmarked)	inactive	inactive	inactive
Cc1ccsc1CN(C(=O)c1cc(C)c2nc(N)sc2c1)C1CC1	inactive	inactive	inactive
CC(C)CCCCCCCCCCCCC(=O)NCC(=O)NC1C(C)OC(Nc2ncnc3nc[nH]c23)C(O)C1O (centres unmarked)	inactive	inactive	inactive
COc1ccc(CNc2ncccc2C(=O)O)cc1OC	inactive	inactive	inactive
COCCCNc1nc2c(-c3cccc(C)c3)nnn2c2ccc(Cl)cc12	inactive	inactive	inactive
COc1cccc(Cn2nnc(C(=O)Nc3ccc(F)c(F)c3)c2N)c1	inactive	inactive	inactive
Cc1cccc2[nH]c(C3CCCN(Cc4ccc(CO)o4)C3)nc12 (centres unmarked)	inactive	inactive	inactive
CCCCSc1nc(N)cc(NC2COC3(CCNCC3)C2)n1 (centres unmarked)	inactive	inactive	inactive
Cc1nn(-c2nc3ccccc3s2)c(N)c1-c1ccc(Cl)cc1	inactive	inactive	inactive
CC[C@H](C)n1cc(C)c2c(C(=O)NCc3c(C)cc(C)[nH]c3=O)cc(-c3ccc(N4CCNCC4)nc3)cc21	inactive	inactive	inactive
Cn1c(=O)n(C)c2cc(CNCCc3ccccc3F)ccc21	inactive	inactive	-
CCCc1cc(Nc2ccc(C(=O)N3CCC(C)CC3)cc2)n2nc(-c3cccnc3)nc2n1	inactive	inactive	-
O=C1CN(c2ccc(C(=O)N3CCOCC(O)C3)cc2)C(=O)N1 (centres unmarked)	inactive	inactive	inactive
CNC(=O)[C@@H]1C[C@@H](N)CN1Cc1cnc(C(C)(C)C)nc1	inactive	inactive	inactive
Cc1cc(-n2cnnc2)ncc1-c1ccc(N)cc1	inactive	inactive	inactive
COc1cc(/N=N/c2cccc(S(N)(=O)=O)c2)c2ccccc2c1N	inactive	inactive	inactive
Cc1ccc(-c2cnc(NCc3ccc(Cl)cc3)n2C)cc1	inactive	inactive	inactive
COc1c(F)cc(-c2cn(CCN3CCNCC3)nn2)cc1Cl	inactive	inactive	inactive
CC(=O)OC[C@@H]1O[C@@H](n2ccc(=O)[nH]c2=O)[C@H](OC(C)=O)[C@H]1OC(C)=O	inactive	inactive	inactive
CCc1ccc(CNCCc2ccccc2OC)cc1	inactive	inactive	inactive
Cc1c(S(=O)(=O)c2ccc(F)cc2)c(N)n(CCN2CCOCC2)c1C	inactive	inactive	inactive
Cc1cc(NC2=NS(=O)(=O)c3ccccc32)no1	inactive	inactive	inactive
NC(=O)c1cccnc1	inactive	inactive	inactive
Clc1ccccc1-c1ccc(CNc2nc[nH]n2)o1	inactive	inactive	-
O=S1(=O)N=C(Nc2ccccc2Br)c2ccccc21	inactive	inactive	inactive
O=S(=O)(c1ccccc1)c1cnc2ccc(Cl)cc2c1NCc1ccccc1	inactive	inactive	-
Cc1ccc(-c2cc(C(=O)NCCCc3csc(N)n3)[nH]n2)o1	inactive	inactive	inactive
CN(C)c1nc(N(C)C)nc(N(C)C)n1	inactive	inactive	inactive
N#CC1=C(N)Oc2c(c(=O)oc3ccccc23)C1C1CCCCC1 (centres unmarked)	inactive	inactive	inactive
Cc1ccc(Nc2nc(C)cc(N3CCN(S(=O)(=O)c4ccccc4F)CC3)n2)cc1	inactive	inactive	-
OCC1(CCc2ccccc2)CCCN(c2cnc3ccccc3n2)C1 (centres unmarked)	inactive	inactive	inactive
CCc1cc(Nc2ccc(F)cc2)n2ncnc2n1	inactive	inactive	inactive
O=C(CCc1nc2ccccc2[nH]1)N1CC[C@@H](c2ccc3c(c2)OCO3)[C@H](O)C1	inactive	inactive	inactive
C=CCn1c(CCNC(=O)CCC(C)O)nc2ccccc21 (centres unmarked)	inactive	inactive	-
CCC(CO)N(Cc1ccsc1)Cc1ccc(F)c(OC)c1F (centres unmarked)	inactive	inactive	inactive
CCSc1nc(-c2ccc(Cl)cc2)nc2c1Cc1c(CO)cnc(C)c1O2	inactive	inactive	-
CS(=O)(=O)CCNC(=O)C1(Oc2ccc(Cl)cc2)CCNCC1	inactive	inactive	inactive
Cc1cc(N(CCO)CCO)n2nc(-c3ccccc3)nc2n1	inactive	inactive	-
CC(C)(Cc1ccc2ccccc2c1)NC[C@@H](O)COc1cccc(Cl)c1C#N	inactive	inactive	inactive
CSc1ncc(C(=O)NC(C)C)c(N)n1	inactive	inactive	inactive
CC(C)N[C@@H]1CC[C@@H]1NC(=O)CCc1ccc(-c2ccc(Cl)cc2)[nH]1	inactive	inactive	inactive
CCc1nccn1CCCNC(=O)C(CC)Nc1cccc(OC)c1 (centres unmarked)	inactive	inactive	inactive
CCc1ccc2oc(=O)cc(-c3oc4ccccc4c3N)c2c1	inactive	inactive	inactive
CCOC(=O)c1cnc2c(C)cc(Cl)cc2c1Nc1ccccc1	inactive	inactive	inactive
CCSCCn1ccnc1-c1cn(C2CCNCC2)nn1	inactive	inactive	inactive
Cc1cc2c(c(=O)o1)C(c1cccc3ccccc13)C(C#N)=C(N)O2 (centres unmarked)	inactive	inactive	inactive

Repeated from the top, 3 entries:

| Compound | TPP | PreQ1 | SAM-II |
|---|---|---|---|
| `N#CCc1n[nH]c(N)c1C#N` | inactive | inactive | inactive |
| `CCN1CC(c2ccccc2)CC2(CCN(c3ccnc(N)n3)CC2)C1` (centres unmarked) | inactive | inactive | inactive |
| `C=CCc1cc(CNC(CC)CO)cc(OC)c1OCC.Cl` (centres unmarked) | inactive | inactive | inactive |

Data from the ROBIN nucleic acid binder screens, doi:10.1002/anie.202211358.